Source: PubChem BioAssay AID912 (NCATS, 2007).

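Uptake of anthrax lethal toxin into cultured cells, read by FRET (460/530 nm ratio) and reported from the 460 nm channel; the cell line is not named here. Each compound was tested as a concentration series from about 0.0005 to 40 µM. The number is the fitted AC50 of the 460 nm signal alone; lower values mean a more potent effect. A falling signal goes with compounds filed as inhibitors or cytotoxic, a rising one with activators or fluorescent compounds (inferred from the filed classes).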

Values are in µM. Common to all entries: measured here: 460 nm channel. Part of the compounds only, not a random draw; the main read-out is not listed here. Potencies fitted to partial, single-point or poorly fitting curves are rough. The first word of each remark tells which way the curve ran; it can be opposite to the aim of the assay.

compound	AC50 (µM)	curve as filed
O=c1c2ccccc2nc(SCc2nnc(-c3ccccc3)o2)n1-c1ccccc1	12.59	falling, partial curve
O=C(CCc1ccccc1)Nc1ncc2c(n1)CCCC2=O	3.981	rising, full curve, poor fit
CC(C)c1ccc2c(c1)c(SC(C)(C)C)c(CC(C)(C)C(=O)O)n2Cc1ccc(Cl)cc1	25.12	falling, partial curve
OC(CN1c2ccccc2Sc2ccccc21)Cn1nnc2ccccc21 (centres unmarked)	25.12	falling, single point
COC(=O)C(C)N(C#N)c1nc(C)nc(C)n1 (centres unmarked)	0.1585	falling, full curve
COC(=O)c1ccc(N2C(=O)CC(Sc3n[nH]c(C)n3)C2=O)cc1 (centres unmarked)	12.59	falling, single point
C/C(N)=C(/C#N)C(=O)CN1CCCCC1	0.003162	falling, full curve, poor fit
CNc1ncncc1-c1ccccc1C(F)(F)F	0.003981	falling, full curve, poor fit
COC[C@H]1OC(=O)c2coc3c2[C@@]1(C)C1=C(C3=O)[C@H]2CCC(=O)[C@@]2(C)C[C@H]1OC(C)=O	1.585	falling, partial curve
CNC(=O)c1cc2ccc(OC)cc2oc1=O	7.943	rising, partial curve
N#CC1=C2SCC(O)(c3ccccc3)N2C(=O)CC1c1cccs1 (centres unmarked)	31.62	falling, single point
Cc1cc(N2CCN(C(=O)c3ccco3)CC2)n2nc(C)c(-c3ccc(Cl)cc3)c2n1	25.12	rising, single point
Nc1ccn([C@H]2CC[C@@H](CO)O2)c(=O)n1	0.7943	falling, full curve, poor fit
N#CC(C(=O)NC1CC1)c1nc2ccccc2nc1N1CCCC1 (centres unmarked)	10	rising, single point
Cc1cc(=O)[nH]c2c1cnn2Cc1ccccc1	15.85	rising, single point
COc1cccc(-n2nnc3c(=O)n(Cc4ccccc4F)cnc32)c1	0.003981	rising, full curve, poor fit
CC(Oc1ccc(Cl)cc1Cl)C(=O)Nc1ccc(N2CCN(C)CC2)cc1 (centres unmarked)	2.512	falling, full curve, poor fit
CC(C)[C@@]1(NC(=O)[C@H]2C[C@H]3c4cccc5[nH]cc(c45)C[C@@H]3N(C)C2)O[C@]2(O)[C@H]3CCCN3C(=O)[C@H](Cc3ccccc3)N2C1=O	25.12	falling, single point
Nc1nc(CN2CCN(c3cccc(Cl)c3)CC2)nc(N2CCCc3ccccc32)n1	31.62	falling, single point
COc1ccc(C(=O)N(CCCO)C(C)C(=O)NC2CCCCC2)cc1OC (centres unmarked)	5.012	falling, single point
O=C(O)c1cccc(S(=O)(=O)NCc2cccs2)c1	5.012	rising, single point
Cc1cc(C)c2c(=O)[nH]n(C3CC(C)N(C)CC3C)c2n1 (centres unmarked)	0.631	falling, single point
CC(C)(C)NC(=O)C(c1ccncc1)N(Cc1cccs1)C(=O)Cn1nnc(-c2cccs2)n1 (centres unmarked)	0.7943	rising, full curve, poor fit
COc1ccc(-c2nc3cnc(N4CCN(C)CC4)nc3n(Cc3ccc(F)cc3)c2=O)cc1	10	rising, partial curve
CCCCCCCCCCCCCCCCCC(=O)NC[C@@H](COP(=O)([O-])OCC[N+](C)(C)C)OCC	15.85	falling, partial curve
Cc1nnc(N(C)C(=O)Cc2ccc3c(c2)OCO3)s1	5.012	rising, single point
O=C(c1ccc(CS(=O)(=O)c2cccc(C(F)(F)F)c2)o1)N1CCN(c2ccccn2)CC1	10	rising, single point
N#Cc1c(-c2ccco2)c2c([nH]c1=S)CCCC2	7.943	falling, partial curve
N=c1sccn1CC(=O)Nc1ccc2c(c1)CCC2	6.31	falling, partial curve
C[C@@H](C(=O)Nc1ccc2ccccc2c1)[C@@H]1C[C@@]1(C)[C@@H](NC(=O)c1ccccc1)c1ccccc1	12.59	falling, single point
CSc1nc(-c2ccccc2)nc(SC)c1C(C)=O	12.59	falling, partial curve
COc1ccccc1C1C=C(c2ccc(C)cc2)Nc2nnnn21 (centres unmarked)	0.2512	rising, partial curve, poor fit
O=C(CSc1nnc(-c2cccnc2)n1Cc1ccco1)N1c2ccccc2Sc2ccccc21	12.59	falling, partial curve
CCOC(=O)c1c(NC(=O)C(F)(OC)C(F)(F)F)sc2c1CCN(C)C2 (centres unmarked)	15.85	rising, partial curve
CCOC(=O)C1=C(C)NC(C)=C(C(=O)OCC)C1c1nc2ccccc2[nH]1	31.62	rising, single point
Nc1ccc(-c2ccc(N)c(Cl)c2)cc1Cl	15.85	falling, partial curve
COc1ccc(CSC2=C(C#N)C(=O)NC3(CCCCC3)S2)cc1	1	rising, single point
O=C(O)[C@H]1[C@H](C(=O)O)[C@H](C(=O)O)C[C@@H]1C(=O)O	0.1259	falling, full curve
COC(=O)[C@@]1(Cc2ccccc2)[C@H]2c3cc(C(=O)N(C)C)n(Cc4nc5ccccc5[nH]4)c3C[C@H]2CN1C(=O)c1ccccc1	12.59	rising, partial curve
O=C(C1CCCN(S(=O)(=O)c2cccc3cccnc23)C1)N1CCN(c2ccccc2F)CC1 (centres unmarked)	31.62	falling, single point

Once more, the final 5:

compound	AC50 (µM)	curve as filed
Nc1ccc(-c2ccc(N)c(Cl)c2)cc1Cl	15.85	falling, partial curve
COc1ccc(CSC2=C(C#N)C(=O)NC3(CCCCC3)S2)cc1	1	rising, single point
O=C(O)[C@H]1[C@H](C(=O)O)[C@H](C(=O)O)C[C@@H]1C(=O)O	0.1259	falling, full curve
COC(=O)[C@@]1(Cc2ccccc2)[C@H]2c3cc(C(=O)N(C)C)n(Cc4nc5ccccc5[nH]4)c3C[C@H]2CN1C(=O)c1ccccc1	12.59	rising, partial curve
O=C(C1CCCN(S(=O)(=O)c2cccc3cccnc23)C1)N1CCN(c2ccccc2F)CC1 (centres unmarked)	31.62	falling, single point